Laboratory results: patent publication US20250283871A1, “COMPOSITIONS AND METHODS FOR MODULATING THE INTERACTION BETWEEN SS18-SSX FUSION ONCOPROTEIN AND NUCLEOSOMES” (Dana-Farber Cancer Institute, Inc., priority 2020, published 2025)

B1: TMPO (protein, UniProt P42166 2-694, looked up)
Lamina-associated polypeptide …: PEFLEDPSVLTKDKLKSELVANNVTLPAGEQRKDVYVQLYLQHLTARNRPPLPAGTNSKGPPDFSSDEEREPTPVLGSGAAAAGRSRAAVGRKATKKTDKPRQEDKDDLDVTELTNEDLLDQLVKYGVNPGPIVGTTRKLYEKKLLKLREQGTESRSSTPLPTISSSAENTRQNGSNDSDRYSDNEEGKKKEHKKVKSTRDIVPFSELGTTPSGGGFFQGISFPEISTRPPLGSTELQAAKKVHTSKGDLPREPLVATNLPGRGQLQKLASERNLFISCKSSHDRCLEKSSSSSSQPEHSAMLVSTAASPSLIKETTTGYYKDIVENICGREKSGIQPLCPERSHISDQSPLSSKRKALEESESSQLISPPLAQAIRDYVNSLLVQGGVGSLPGTSNSMPPLDVENIQKRIDQSKFQETEFLSPPRKVPRLSEKSVEERDSGSFVAFQNIPGSELMSSFAKTVVSHSLTTLGLEVAKQSQHDKIDASELSFPFHESILKVIEEEWQQVDRQLPSLACKYPVSSREATQILSVPKVDDEILGFISEATPLGGIQAASTESCNQQLDLALCRAYEAAASALQIATHTAFVAKAMQADISQAAQILSSDPSRTHQALGILSKTYDAASYICEAAFDEVKMAAHTMGNATVGRRYLWLKDCKINLASKNKLASTPFKGGTLFGGEVCKVIKKRGNKH
B2: NOP14 (protein, UniProt P78316 1-857, looked up)
Nucleolar protein 14: MAKAKKVGARRKASGAPAGARGGPAKANSNPFEVKVNRQKFQILGRKTRHDVGLPGVSRARALRKRTQTLLKEYKERDKSNVFRDKRFGEYNSNMSPEEKMMKRFALEQQRHHEKKSIYNLNEDEELTHYGQSLADIEKHNDIVDSDSDAEDRGTLSAELTAAHFGGGGGLLHKKTQQEGEEREKPKSRKELIEELIAKSKQEKRERQAQREDALELTEKLDQDWKEIQTLLSHKTPKSENRDKKEKPKPDAYDMMVRELGFEMKAQPSNRMKTEAELAKEEQEHLRKLEAERLRRMLGKDEDENVKKPKHMSADDLNDGFVLDKDDRRLLSYKDGKMNVEEDVQEEQSKEASDPESNEEEGDSSGGEDTEESDSPDSHLDLESNVESEEENEKPAKEQRQTPGKGLISGKERAGKATRDELPYTFAAPESYEELRSLLLGRSMEEQLLVVERIQKCNHPSLAEGNKAKLEKLFGFLLEYVGDLATDDPPDLTVIDKLVVHLYHLCQMFPESASDAIKFVLRDAMHEMEEMIETKGRAALPGLDVLIYLKITGLLFPTSDFWHPVVTPALVCLSQLLTKCPILSLQDVVKGLFVCCLFLEYVALSQRFIPELINFLLGILYIATPNKASQGSTLVHPFRALGKNSELLVVSAREDVATWQQSSLSLRWASRLRAPTSTEANHIRLSCLAVGLALLKRCVLMYGSLPSFHAIMGPLQALLTDHLADCSHPQELQELCQSTLTEMESQKQLCRPLTCEKSKPVPLKLFTPRLVKVLEFGRKQGSSKEEQERKRLIHKHKREFKGAVREIRKDNQFLARMQLSEIMERDAERKRKVKQLFNSLATQEGEWKALKRKKFKK
B3: U2SURP (protein, UniProt O15042 2-1029, looked up)
U2 snRNP-associated SURP …: ADKTPGGSQKASSKTRSSDVHSSGSSDAHMDASGPSDSDMPSRTRPKSPRKHNYRNESARESLCDSPHQNLSRPLLENKLKAFSIGKMSTAKRTLSKKEQEELKKKEDEKAAAEIYEEFLAAFEGSDGNKVKTFVRGGVVNAAKEEHETDEKRGKIYKPSSRFADQKNPPNQSSNERPPSLLVIETKKPPLKKGEKEKKKSNLELFKEELKQIQEERDERHKTKGRLSRFEPPQSDSDGQRRSMDAPSRRNRSSGVLDDYAPGSHDVGDPSTTNLYLGNINPQMNEEMLCQEFGRFGPLASVKIMWPRTDEERARERNCGFVAFMNRRDAERALKNLNGKMIMSFEMKLGWGKAVPIPPHPIYIPPSMMEHTLPPPPSGLPFNAQPRERLKNPNAPMLPPPKNKEDFEKTLSQAIVKVVIPTERNLLALIHRMIEFVVREGPMFEAMIMNREINNPMFRFLFENQTPAHVYYRWKLYSILQGDSPTKWRTEDFRMFKNGSFWRPPPLNPYLHGMSEEQETEAFVEEPSKKGALKEEQRDKLEEILRGLTPRKNDIGDAMVFCLNNAEAAEEIVDCITESLSILKTPLPKKIARLYLVSDVLYNSSAKVANASYYRKFFETKLCQIFSDLNATYRTIQGHLQSENFKQRVMTCFRAWEDWAIYPEPFLIKLQNIFLGLVNIIEEKETEDVPDDLDGAPIEEELDGAPLEDVDGIPIDATPIDDLDGVPIKSLDDDLDGVPLDATEDSKKNEPIFKVAPSKWEAVDESELEAQAVTTSKWELFDQHEESEEEENQNQEEESEDEEDTQSSKSEEHHLYSNPIKEEMTESKFSKYSEMSEEKRAKLREIELKVMKFQDELESGKRPKKPGQSFQEQVEHYRDKLLQREKEKELERERERDKKDKEKLESRSKDKKEKDECTPTRKERKRRHSTSPSPSRSSSGRRVKSPSPKSERSERSERSHKESSRSRSSHKDSPRDVSKKAKRSPSGSRTPKRSRRSRSRSPKKSGKKSRSQSRSPHRSHKKSKKNKH
B4: HP1BP3 (protein, UniProt Q5SSJ5 2-553, looked up)
Heterochromatin protein …: ATDTSQGELVHPKALPLIVGAQLIHADKLGEKVEDSTMPIRRTVNSTRETPPKSKLAEGEEEKPEPDISSEESVSTVEEQENETPPATSSEAEQPKGEPENEEKEENKSSEETKKDEKDQSKEKEKKVKKTIPSWATLSASQLARAQKQTPMASSPRPKMDAILTEAIKACFQKSGASVVAIRKYIIHKYPSLELERRGYLLKQALKRELNRGVIKQVKGKGASGSFVVVQKSRKTPQKSRNRKNRSSAVDPEPQVKLEDVLPLAFTRLCEPKEASYSLIRKYVSQYYPKLRVDIRPQLLKNALQRAVERGQLEQITGKGASGTFQLKKSGEKPLLGGSLMEYAILSAIAAMNEPKTCSTTALKKYVLENHPGTNSNYQMHLLKKTLQKCEKNGWMEQISGKGFSGTFQLCFPYYPSPGVLFPKKEPDDSRDEDEDEDESSEEDSEDEEPPPKRRLQKKTPAKSPGKAASVKQRGSKPAPKVSAAQRGKARPLPKKAPPKAKTPAKKTRPSSTVIKKPSGGSSKKPATSARKEVKLPGKGKSTMKKSFRVKK
B5: DPF3 (protein, UniProt Q92784 1-378, looked up)
Zinc finger protein DPF3: MATVIHNPLKALGDQFYKEAIEHCRSYNSRLCAERSVRLPFLDSQTGVAQNNCYIWMEKRHRGPGLAPGQLYTYPARCWRKKRRLHPPEDPKLRLLEIKPEVELPLKKDGFTSESTTLEALLRGEGVEKKVDAREEESIQEIQRVLENDENVEEGNEEEDLEEDIPKRKNRTRGRARGSAGGRRRHDAASQEDHDKPYVCDICGKRYKNRPGLSYHYAHTHLASEEGDEAQDQETRSPPNHRNENHRPQKGPDGTVIPNNYCDFCLGGSNMNKKSGRPEELVSCADCGRSGHPTCLQFTLNMTEAVKTYKWQCIECKSCILCGTSENDDQLLFCDDCDRGYHMYCLNPPVAEPPEGSWSCHLCWELLKEKASAFGCQA
B6: SAP18 (protein, UniProt O00422 2-153, looked up)
Histone deacetylase complex …: AVESRVTQEEIKKEPEKPIDREKTCPLLLRVFTTNNGRHHRMDEFSRGNVPSSELQIYTWMDATLKELTSLVKEVYPEARKKGTHFNFAIVFTDVKRPGYRVKEIGSTMSGRKGTDDSMTLQSQKFQIGDYLDIAITPPNRAPPPSGRMRPY
B7: EHMT1 (protein, UniProt Q9H9B1 2-1298, looked up)
Histone-lysine …: AAADAEAVPARGEPQQDCCVKTELLGEETPMAADEGSAEKQAGEAHMAADGETNGSCENSDASSHANAAKHTQDSARVNPQDGTNTLTRIAENGVSERDSEAAKQNHVTADDFVQTSVIGSNGYILNKPALQAQPLRTTSTLASSLPGHAAKTLPGGAGKGRTPSAFPQTPAAPPATLGEGSADTEDRKLPAPGADVKVHRARKTMPKSVVGLHAASKDPREVREARDHKEPKEEINKNISDFGRQQLLPPFPSLHQSLPQNQCYMATTKSQTACLPFVLAAAVSRKKKRRMGTYSLVPKKKTKVLKQRTVIEMFKSITHSTVGSKGEKDLGASSLHVNGESLEMDSDEDDSEELEEDDGHGAEQAAAFPTEDSRTSKESMSEADRAQKMDGESEEEQESVDTGEEEEGGDESDLSSESSIKKKFLKRKGKTDSPWIKPARKRRRRSRKKPSGALGSESYKSSAGSAEQTAPGDSTGYMEVSLDSLDLRVKGILSSQAEGLANGPDVLETDGLQEVPLCSCRMETPKSREITTLANNQCMATESVDHELGRCTNSVVKYELMRPSNKAPLLVLCEDHRGRMVKHQCCPGCGYFCTAGNFMECQPESSISHRFHKDCASRVNNASYCPHCGEESSKAKEVTIAKADTTSTVTPVPGQEKGSALEGRADTTTGSAAGPPLSEDDKLQGAASHVPEGFDPTGPAGLGRPTPGLSQGPGKETLESALIALDSEKPKKLRFHPKQLYFSARQGELQKVLLMLVDGIDPNFKMEHQNKRSPLHAAAEAGHVDICHMLVQAGANIDTCSEDQRTPLMEAAENNHLEAVKYLIKAGALVDPKDAEGSTCLHLAAKKGHYEVVQYLLSNGQMDVNCQDDGGWTPMIWATEYKHVDLVKLLLSKGSDINIRDNEENICLHWAAFSGCVDIAEILLAAKCDLHAVNIHGDSPLHIAARENRYDCVVLFLSRDSDVTLKNKEGETPLQCASLNSQVWSALQMSKALQDSAPDRPSPVERIVSRDIARGYERIPIPCVNAVDSEPCPSNYKYVSQNCVTSPMNIDRNITHLQYCVCIDDCSSSNCMCGQLSMRCWYDKDGRLLPEFNMAEPPLIFECNHACSCWRNCRNRVVQNGLRARLQLYRTRDMGWGVRSLQDIPPGTFVCEYVGELISDSEADVREEDSYLFDLDNKDGEVYCIDARFYGNVSRFINHHCEPNLVPVRVFMAHQDLRFPRIAFFSTRLIEAGEQLGFDYGERFWDIKGKLFSCRCGSPKCRHSSAALAQRQASAAQEAQEDGLPDTSSAAAADPL

Tested on: BAF complex subunits and histone proteins
Assay: Mass spectrometry proteomics of purified HA-SS18 WT and HA-SS18-SSX1 complexes (Tables 5A-5E)
Design: species or system human
Settings: HA-SS18SSX1_CHR_peptides: protein identified in the HA-SS18-SSX1 purification from solubilized chromatin (CHR), HEK-293T

Molecule	Total (total peptides)	Unique (unique peptides)
B1	7	7
B2	7	7
B3	7	7
B4	7	7
B5	7	5
B6	7	5
B7	7	5

Same assay, conditions: HA-SS18SSX1 purification, NE (soluble nuclear extract) fraction, HEK-293T; peptides per identified protein

Molecule	Total (total peptides)	Unique (unique peptides)
B1	7	6
B5	5	4

Same assay, conditions: HA-SS18WT_CHR_peptides: HA-SS18 WT purification from nuclease-treated solubilized chromatin (CHR), HEK-293T; label = protein identified

Molecule	Total (peptides)	Unique (peptides)
B1	3	3
B2	3	3
B4	3	3
B7	3	3

Same assay, conditions: HA-SS18WT_CHR_peptides: protein identified in HA-SS18 WT BAF complex purification from nuclease-treated solubilized chromatin (CHR), HEK-293T

Molecule	Total (total peptides)	Unique (unique peptides)
B3	1	1
B5	2	2

Same assay, conditions: HA-SS18WT_NE_peptides: HA-SS18 WT complexes purified from nuclear extract (NE), HEK-293T; label = protein identified (Gene Symbol)

Molecule	Total (peptides)	Unique (peptides)
B5	6	4

Same assay, conditions: HA-SS18WT_NE_peptides: proteins co-purified with HA-SS18 WT from nuclear extract (NE), HEK-293T

Molecule	Total (peptides)	Unique (peptides)
B1	2	2
B5	1	1
